The results in this text go back to paper PMC6851102.

No constants are given. Whether binding was seen depends on the method and setting. Binding seen in cells or lysates may run through a third protein. Some results given as binding are weak or reduced against the parent protein; the word gives no strength.

This experiment addresses T1, ZEB1, endogenous in human NSCLC cell lines (human (endogenous in H157 and H1299)), P37275.
T1 chain: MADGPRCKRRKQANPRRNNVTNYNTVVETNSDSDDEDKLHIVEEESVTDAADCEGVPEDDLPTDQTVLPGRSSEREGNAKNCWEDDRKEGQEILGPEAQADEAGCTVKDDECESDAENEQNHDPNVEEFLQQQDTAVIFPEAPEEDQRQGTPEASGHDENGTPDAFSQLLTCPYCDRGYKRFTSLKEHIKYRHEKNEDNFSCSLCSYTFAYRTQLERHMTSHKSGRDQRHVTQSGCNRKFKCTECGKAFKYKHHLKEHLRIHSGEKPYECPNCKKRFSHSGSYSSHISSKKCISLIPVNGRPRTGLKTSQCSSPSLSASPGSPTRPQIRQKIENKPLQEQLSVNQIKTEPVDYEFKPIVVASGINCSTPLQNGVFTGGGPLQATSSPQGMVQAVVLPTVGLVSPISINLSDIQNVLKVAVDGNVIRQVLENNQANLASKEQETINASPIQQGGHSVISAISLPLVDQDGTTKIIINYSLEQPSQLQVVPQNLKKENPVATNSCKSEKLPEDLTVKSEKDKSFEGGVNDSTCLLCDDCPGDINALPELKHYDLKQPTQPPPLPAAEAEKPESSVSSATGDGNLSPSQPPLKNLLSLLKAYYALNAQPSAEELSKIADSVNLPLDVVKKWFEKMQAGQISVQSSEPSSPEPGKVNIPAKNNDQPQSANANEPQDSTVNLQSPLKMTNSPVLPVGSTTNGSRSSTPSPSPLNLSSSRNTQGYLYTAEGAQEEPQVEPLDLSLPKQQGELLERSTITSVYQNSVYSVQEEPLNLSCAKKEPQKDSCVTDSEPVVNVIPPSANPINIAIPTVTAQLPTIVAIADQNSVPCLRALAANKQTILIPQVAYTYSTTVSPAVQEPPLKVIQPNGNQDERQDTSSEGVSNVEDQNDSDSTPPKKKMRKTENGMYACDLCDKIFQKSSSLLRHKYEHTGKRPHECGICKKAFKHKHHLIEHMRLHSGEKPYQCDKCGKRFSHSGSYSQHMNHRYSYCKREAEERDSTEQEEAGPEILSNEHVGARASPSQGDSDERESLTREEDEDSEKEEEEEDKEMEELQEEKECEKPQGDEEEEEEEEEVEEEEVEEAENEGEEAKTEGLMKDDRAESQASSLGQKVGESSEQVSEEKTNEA
Put plainly: proximity ligation; endogenous proteins in fixed, permeabilised H157, H1299, 344SQ and 531LN2 cells; primary antibodies to ZEB1 and a NuRD member; Duolink In Situ Red Starter Mouse/Rabbit kit; confocal microscopy. To be noted: remark: other sources report otherwise.

B1: MTA3, human, endogenous, Q9BTC8 1-594 (protein)
chain: MAANMYRVGDYVYFENSSSNPYLIRRIEELNKTASGNVEAKVVCFYRRRDISNTLIMLADKHAKEIEEESETTVEADLTDKQKHQLKHRELFLSRQYESLPATHIRGKCSVALLNETESVLSYLDKEDTFFYSLVYDPSLKTLLADKGEIRVGPRYQADIPEMLLEGESDEREQSKLEVKVWDPNSPLTDRQIDQFLVVARAVGTFARALDCSSSVRQPSLHMSAAAASRDITLFHAMDTLYRHSYDLSSAISVLVPLGGPVLCRDEMEEWSASEASLFEEALEKYGKDFNDIRQDFLPWKSLTSIIEYYYMWKTTDRYVQQKRLKAAEAESKLKQVYIPTYSKPNPNQISTSNGKPGAVNGAVGTTFQPQNPLLGRACESCYATQSHQWYSWGPPNMQCRLCAICWLYWKKYGGLKMPTQSEEEKLSPSPTTEDPRVRSHVSRQAMQGMPVRNTGSPKSAVKTRQAFFLHTTYFTKFARQVCKNTLRLRQAARRPFVAINYAAIRAEYADRHAELSGSPLKSKSTRKPLACIIGYLEIHPAKKPNVIRSTPSLQTPTTKRMLTTPNHTSLSILGKRNYSHHNGLDELTCCVSD
B1: the binding result was “binds”.
